# From the supplement of paper PMC7666118
# Sequences of proteins named here, by UniProt entry; tags and fusion partners are left off. A change or cut given only in a name is not applied to a line headed by its entry.
# UniProt P12544: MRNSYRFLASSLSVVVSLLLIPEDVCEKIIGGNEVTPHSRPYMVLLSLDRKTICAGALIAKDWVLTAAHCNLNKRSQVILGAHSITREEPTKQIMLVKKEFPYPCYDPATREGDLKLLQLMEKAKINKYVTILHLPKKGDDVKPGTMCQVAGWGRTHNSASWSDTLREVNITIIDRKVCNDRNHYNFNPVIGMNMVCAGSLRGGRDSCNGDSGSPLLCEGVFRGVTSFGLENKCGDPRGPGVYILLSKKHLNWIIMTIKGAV
# UniProt Q7Z4Q2: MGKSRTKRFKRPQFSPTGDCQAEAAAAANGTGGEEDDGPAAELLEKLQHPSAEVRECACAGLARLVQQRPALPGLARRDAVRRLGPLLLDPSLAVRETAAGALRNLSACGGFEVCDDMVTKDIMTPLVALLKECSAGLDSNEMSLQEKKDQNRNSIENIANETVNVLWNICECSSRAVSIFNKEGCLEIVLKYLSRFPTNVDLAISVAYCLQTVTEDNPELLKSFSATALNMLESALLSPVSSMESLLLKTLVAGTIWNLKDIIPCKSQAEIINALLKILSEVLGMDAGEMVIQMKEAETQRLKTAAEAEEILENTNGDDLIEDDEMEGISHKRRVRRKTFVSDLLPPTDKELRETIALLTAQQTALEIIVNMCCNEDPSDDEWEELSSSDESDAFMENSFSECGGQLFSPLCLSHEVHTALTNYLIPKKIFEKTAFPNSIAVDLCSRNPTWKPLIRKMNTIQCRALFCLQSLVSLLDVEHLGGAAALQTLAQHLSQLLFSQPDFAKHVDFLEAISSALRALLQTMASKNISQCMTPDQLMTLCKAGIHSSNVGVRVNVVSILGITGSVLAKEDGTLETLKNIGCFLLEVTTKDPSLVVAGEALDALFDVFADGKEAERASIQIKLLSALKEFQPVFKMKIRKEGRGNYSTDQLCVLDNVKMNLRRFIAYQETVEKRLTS
# UniProt Q13547, whole entry: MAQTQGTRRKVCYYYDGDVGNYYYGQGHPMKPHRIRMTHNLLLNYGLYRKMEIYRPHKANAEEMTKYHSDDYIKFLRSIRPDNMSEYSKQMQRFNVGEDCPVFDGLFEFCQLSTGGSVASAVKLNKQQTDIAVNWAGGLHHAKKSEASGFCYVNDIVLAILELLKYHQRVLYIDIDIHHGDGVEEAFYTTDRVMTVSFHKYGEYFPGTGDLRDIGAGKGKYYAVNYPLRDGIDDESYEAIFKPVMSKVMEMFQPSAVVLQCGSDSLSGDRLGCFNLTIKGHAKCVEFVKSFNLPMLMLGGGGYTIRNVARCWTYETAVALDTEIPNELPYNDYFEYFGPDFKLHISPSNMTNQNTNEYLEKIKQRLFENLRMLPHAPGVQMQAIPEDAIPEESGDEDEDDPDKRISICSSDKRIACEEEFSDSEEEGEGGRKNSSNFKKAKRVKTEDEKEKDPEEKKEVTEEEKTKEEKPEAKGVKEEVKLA
# UniProt Q7LGA3: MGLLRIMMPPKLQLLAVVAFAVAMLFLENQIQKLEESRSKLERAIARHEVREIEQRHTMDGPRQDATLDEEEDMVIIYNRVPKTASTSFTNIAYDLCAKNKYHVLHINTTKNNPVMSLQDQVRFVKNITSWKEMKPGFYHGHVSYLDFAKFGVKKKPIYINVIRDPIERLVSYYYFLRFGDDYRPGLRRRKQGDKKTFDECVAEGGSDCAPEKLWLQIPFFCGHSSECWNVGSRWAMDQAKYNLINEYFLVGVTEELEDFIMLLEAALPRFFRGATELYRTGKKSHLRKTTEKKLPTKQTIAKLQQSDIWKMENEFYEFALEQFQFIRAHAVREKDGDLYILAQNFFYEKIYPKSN
# UniProt Q9BSH5: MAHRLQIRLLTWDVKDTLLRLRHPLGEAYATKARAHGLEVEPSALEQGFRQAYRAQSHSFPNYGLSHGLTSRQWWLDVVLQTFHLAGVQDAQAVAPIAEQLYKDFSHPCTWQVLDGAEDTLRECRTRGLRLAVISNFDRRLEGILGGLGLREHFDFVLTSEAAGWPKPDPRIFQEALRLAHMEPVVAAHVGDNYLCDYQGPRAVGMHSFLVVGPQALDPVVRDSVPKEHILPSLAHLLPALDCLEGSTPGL
# UniProt Q9BT25: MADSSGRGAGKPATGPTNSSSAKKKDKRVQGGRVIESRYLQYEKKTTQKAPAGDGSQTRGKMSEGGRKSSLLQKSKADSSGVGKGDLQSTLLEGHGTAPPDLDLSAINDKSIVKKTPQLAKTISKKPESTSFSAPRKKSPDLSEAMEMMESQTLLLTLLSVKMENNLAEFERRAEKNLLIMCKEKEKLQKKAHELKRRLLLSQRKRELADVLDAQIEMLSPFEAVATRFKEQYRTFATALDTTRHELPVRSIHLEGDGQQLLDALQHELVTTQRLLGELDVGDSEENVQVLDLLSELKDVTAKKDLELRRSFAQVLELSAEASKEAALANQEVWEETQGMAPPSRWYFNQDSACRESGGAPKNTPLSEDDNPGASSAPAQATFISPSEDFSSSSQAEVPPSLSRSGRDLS
# UniProt P53701: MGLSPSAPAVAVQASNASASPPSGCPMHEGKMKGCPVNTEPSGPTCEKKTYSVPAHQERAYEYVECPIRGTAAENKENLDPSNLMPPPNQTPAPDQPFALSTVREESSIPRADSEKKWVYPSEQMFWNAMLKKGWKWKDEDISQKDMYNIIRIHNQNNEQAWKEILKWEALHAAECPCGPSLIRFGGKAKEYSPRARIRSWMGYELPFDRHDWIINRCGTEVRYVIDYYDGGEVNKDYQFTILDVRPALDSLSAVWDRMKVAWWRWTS
# UniProt Q96JZ2: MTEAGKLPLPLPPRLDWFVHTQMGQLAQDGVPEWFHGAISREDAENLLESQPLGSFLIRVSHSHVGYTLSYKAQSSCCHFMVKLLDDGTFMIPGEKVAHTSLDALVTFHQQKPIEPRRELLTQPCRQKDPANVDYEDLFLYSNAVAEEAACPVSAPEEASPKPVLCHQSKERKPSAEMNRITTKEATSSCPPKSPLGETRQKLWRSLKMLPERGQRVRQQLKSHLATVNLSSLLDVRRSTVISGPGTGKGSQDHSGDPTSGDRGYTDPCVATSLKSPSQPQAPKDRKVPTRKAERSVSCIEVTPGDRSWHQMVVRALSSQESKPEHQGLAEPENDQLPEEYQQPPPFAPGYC
# UniProt Q9NQE9: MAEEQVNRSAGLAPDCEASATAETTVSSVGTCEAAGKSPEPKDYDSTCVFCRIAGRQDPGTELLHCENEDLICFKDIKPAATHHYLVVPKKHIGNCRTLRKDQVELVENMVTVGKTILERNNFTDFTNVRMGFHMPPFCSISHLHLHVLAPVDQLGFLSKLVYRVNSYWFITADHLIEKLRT
# UniProt Q8IWK6: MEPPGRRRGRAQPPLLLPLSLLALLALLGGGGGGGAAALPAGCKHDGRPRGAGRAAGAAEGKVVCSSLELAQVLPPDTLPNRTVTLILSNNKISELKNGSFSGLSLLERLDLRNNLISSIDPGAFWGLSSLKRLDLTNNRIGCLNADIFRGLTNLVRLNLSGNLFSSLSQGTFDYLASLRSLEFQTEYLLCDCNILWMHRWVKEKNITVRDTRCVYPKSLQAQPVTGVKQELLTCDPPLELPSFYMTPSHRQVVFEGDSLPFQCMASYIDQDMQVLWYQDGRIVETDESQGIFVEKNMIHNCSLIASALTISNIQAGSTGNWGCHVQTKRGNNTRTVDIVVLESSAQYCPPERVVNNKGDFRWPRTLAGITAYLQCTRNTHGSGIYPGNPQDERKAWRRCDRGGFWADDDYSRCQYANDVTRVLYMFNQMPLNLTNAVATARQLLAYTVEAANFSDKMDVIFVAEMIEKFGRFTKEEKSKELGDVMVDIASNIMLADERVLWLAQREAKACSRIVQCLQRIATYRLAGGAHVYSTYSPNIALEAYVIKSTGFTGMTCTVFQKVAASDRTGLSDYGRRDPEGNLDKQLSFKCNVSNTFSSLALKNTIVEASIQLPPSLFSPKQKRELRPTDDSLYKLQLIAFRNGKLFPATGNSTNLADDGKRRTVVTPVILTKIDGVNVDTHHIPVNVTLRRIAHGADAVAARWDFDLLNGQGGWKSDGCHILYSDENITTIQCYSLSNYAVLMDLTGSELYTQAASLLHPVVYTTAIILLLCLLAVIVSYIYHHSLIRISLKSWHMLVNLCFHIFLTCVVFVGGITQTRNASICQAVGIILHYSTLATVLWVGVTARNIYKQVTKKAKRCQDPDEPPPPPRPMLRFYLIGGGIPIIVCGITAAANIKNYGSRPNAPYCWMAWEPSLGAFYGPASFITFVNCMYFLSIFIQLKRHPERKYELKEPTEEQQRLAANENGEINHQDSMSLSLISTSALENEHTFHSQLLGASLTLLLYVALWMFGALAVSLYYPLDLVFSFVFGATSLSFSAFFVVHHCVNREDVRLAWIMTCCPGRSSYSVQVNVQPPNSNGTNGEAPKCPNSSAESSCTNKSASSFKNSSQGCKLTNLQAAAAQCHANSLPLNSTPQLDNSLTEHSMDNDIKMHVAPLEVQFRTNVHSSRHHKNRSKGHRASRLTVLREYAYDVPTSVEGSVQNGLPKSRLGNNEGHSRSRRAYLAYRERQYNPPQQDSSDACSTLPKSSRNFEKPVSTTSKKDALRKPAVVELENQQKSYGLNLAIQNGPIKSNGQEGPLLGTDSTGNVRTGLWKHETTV
# UniProt Q9Y5Q8: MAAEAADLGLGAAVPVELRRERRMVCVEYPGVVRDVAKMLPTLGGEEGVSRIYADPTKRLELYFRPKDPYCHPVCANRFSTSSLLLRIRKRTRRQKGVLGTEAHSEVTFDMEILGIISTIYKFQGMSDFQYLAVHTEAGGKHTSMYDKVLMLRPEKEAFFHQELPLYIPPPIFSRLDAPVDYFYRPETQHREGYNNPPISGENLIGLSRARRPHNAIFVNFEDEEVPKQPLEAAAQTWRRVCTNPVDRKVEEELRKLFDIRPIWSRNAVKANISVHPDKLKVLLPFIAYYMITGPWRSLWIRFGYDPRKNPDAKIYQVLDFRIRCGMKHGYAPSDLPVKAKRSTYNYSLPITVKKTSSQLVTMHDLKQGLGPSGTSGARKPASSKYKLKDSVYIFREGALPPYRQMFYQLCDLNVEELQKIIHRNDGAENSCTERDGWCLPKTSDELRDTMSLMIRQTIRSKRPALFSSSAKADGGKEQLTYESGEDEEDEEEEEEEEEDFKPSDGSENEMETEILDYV
# UniProt O94992, whole entry: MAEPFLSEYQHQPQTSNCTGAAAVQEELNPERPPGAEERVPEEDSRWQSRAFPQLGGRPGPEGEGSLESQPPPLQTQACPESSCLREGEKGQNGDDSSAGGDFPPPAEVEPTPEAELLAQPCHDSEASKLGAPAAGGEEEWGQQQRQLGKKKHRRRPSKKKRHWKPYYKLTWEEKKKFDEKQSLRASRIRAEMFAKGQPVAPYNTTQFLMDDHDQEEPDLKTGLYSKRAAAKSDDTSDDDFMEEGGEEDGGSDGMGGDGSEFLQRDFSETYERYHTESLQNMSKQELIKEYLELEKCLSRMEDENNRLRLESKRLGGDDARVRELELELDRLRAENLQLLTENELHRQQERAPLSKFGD
# UniProt Q9UPZ3: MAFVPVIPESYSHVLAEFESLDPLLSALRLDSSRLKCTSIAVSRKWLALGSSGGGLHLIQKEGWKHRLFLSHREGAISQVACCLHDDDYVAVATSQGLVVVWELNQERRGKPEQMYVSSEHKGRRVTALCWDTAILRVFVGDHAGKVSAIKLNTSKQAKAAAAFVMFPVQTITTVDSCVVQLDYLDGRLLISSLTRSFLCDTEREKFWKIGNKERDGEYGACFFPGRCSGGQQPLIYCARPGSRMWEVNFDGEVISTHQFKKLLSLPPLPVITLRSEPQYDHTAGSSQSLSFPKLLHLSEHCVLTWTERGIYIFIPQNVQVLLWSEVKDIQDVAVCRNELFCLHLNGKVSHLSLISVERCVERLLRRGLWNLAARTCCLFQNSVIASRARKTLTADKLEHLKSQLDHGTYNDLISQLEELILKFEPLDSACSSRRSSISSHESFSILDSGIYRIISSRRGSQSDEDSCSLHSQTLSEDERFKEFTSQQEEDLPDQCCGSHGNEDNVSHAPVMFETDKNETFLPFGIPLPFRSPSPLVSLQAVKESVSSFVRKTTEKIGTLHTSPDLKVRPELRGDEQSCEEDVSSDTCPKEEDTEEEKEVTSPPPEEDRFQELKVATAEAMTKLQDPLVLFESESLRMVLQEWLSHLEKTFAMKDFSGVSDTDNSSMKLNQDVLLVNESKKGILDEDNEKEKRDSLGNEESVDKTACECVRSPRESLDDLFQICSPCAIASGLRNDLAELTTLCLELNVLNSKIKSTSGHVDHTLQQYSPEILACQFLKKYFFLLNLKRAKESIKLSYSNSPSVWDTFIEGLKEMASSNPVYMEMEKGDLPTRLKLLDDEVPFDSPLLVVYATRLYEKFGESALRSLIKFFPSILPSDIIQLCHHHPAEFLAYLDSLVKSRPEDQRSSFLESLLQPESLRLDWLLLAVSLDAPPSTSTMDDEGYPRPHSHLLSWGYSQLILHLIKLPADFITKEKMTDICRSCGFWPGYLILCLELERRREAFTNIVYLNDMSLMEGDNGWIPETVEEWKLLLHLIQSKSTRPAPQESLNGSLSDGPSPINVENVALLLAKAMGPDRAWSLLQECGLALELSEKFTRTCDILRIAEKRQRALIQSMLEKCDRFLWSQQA
# The list shows a part of the results.
# Compound: COc1ccc(Cn2ccc3cc(C)c(C(=O)NO)cc32)cc1
# Test: dose-dependent thermal stabilisation call (2D-TPP, DLPTP, 10% FDR) (binary (1 = stabilised)); higher = stabilised by the compound
# Conditions: system: HL-60 intact cells; concentration range 0.04-10 µM
# Protocol: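 2D thermal proteome profiling in intact HL-60 cells treated with BRD-3811 (0, 0.04, 0.29, 2, 10 uM) for 90 min at 37 C, then heated 3 min at one of 12 temperatures (42-63.9 C). Soluble protein was quantified by TMT10 MS. The value is the DLPTP call of the paper: dose-dependent thermal stabilisation over all temperatures at 10% FDR (F-test of a dose-response against a flat model); one experiment, one call per tested protein.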
row,Target,dose-dependent thermal stabilisation call
1,GTPBP10 (UniProt A4D1E9),inactive: 0
2,GZMA (UniProt P12544),inactive: 0
3,HEATR3 (UniProt Q7Z4Q2),inactive: 0
4,HDAC1 (UniProt Q13547),inactive: 0
5,HSP90AB1 (UniProt P08238),inactive: 0
6,HS2ST1 (UniProt Q7LGA3),inactive: 0
7,HDHD3 (UniProt Q9BSH5),inactive: 0
8,HNRNPA3 (UniProt P51991),inactive: 0
9,GSE1 (UniProt Q14687),inactive: 0
10,HELZ (UniProt P42694),inactive: 0
11,HDGF (UniProt P51858),inactive: 0
12,HICE1 (UniProt Q9BT25),inactive: 0
13,HCCS (UniProt P53701),inactive: 0
14,HDAC4 (UniProt P56524),inactive: 0
15,HP1BP3 (UniProt Q5SSJ5),inactive: 0
16,HMMR (UniProt O75330),inactive: 0
17,HAGH (UniProt Q16775),inactive: 0
18,HECA (UniProt Q9UBI9),inactive: 0
19,HSH2D (UniProt Q96JZ2),inactive: 0
20,HINT3 (UniProt Q9NQE9),inactive: 0

row,Target,dose-dependent thermal stabilisation call
1,HIST1H4A (UniProt P62805),inactive: 0
2,GTPBP3 (UniProt Q969Y2),inactive: 0
3,GPAM (UniProt Q9HCL2),inactive: 0
4,HABP4 (UniProt Q5JVS0),inactive: 0
5,GPR125 (UniProt Q8IWK6),inactive: 0
6,HINT2 (UniProt Q9BX68),inactive: 0
7,HERPUD1 (UniProt Q15011),inactive: 0
8,H2AFX (UniProt P16104),inactive: 0
9,GOT2 (UniProt P00505),inactive: 0
10,HBS1L (UniProt Q9Y450),inactive: 0
11,HNRPA1L-2,inactive: 0
12,GTF3C5 (UniProt Q9Y5Q8),inactive: 0
13,HEXIM1 (UniProt O94992),inactive: 0
14,GOLGB1 (UniProt Q14789),inactive: 0
15,GPR126 (UniProt Q86SQ4),inactive: 0
16,GRLF1 (UniProt Q9NRY4),inactive: 0
17,GPR172A (UniProt Q9HAB3),inactive: 0
18,HADH (UniProt Q16836),inactive: 0
19,HNRNPH1 (UniProt P31943),inactive: 0
20,HPS5 (UniProt Q9UPZ3),inactive: 0

# Random excerpt: 3 entries already listed, in no set order.
row,Target,dose-dependent thermal stabilisation call
18,HADH (UniProt Q16836),inactive: 0
17,GPR172A (UniProt Q9HAB3),inactive: 0
4,HABP4 (UniProt Q5JVS0),inactive: 0
